# Measurements: PMC3364992
# The chains behind the UniProt entries cited, without tags or fusion partners. Residues count along the entry.
# UniProt P19838, residues 1-433: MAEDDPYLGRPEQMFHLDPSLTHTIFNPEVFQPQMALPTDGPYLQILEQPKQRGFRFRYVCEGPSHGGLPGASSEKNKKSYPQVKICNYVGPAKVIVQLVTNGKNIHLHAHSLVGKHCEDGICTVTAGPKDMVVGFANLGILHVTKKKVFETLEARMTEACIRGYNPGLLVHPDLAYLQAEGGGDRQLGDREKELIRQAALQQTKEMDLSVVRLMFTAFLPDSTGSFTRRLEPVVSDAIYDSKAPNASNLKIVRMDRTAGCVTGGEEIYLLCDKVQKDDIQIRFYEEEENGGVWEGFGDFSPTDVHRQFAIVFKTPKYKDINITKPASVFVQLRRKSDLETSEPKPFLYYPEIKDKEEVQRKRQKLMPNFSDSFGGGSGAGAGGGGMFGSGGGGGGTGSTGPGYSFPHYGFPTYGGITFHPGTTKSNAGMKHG
# UniProt Q04206: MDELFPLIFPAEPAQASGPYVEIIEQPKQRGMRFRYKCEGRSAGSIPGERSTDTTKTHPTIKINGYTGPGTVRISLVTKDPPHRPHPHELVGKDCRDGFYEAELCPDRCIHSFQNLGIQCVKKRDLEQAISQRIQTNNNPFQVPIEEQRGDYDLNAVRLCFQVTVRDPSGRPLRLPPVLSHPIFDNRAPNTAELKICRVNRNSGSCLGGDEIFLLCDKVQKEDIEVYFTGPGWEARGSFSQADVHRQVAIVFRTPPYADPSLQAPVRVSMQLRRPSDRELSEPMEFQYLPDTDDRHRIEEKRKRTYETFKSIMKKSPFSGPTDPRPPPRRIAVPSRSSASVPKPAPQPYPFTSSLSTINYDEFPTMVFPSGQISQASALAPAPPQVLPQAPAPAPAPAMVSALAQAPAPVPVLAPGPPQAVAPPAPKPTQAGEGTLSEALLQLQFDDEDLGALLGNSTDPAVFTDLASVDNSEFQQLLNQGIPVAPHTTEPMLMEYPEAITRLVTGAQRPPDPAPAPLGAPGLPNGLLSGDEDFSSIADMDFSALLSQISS
# Results are given in words; binding and its absence hold for the method and conditions named. In cells and extracts the contact can be indirect. Sequences can lack the tags named with a protein.
# Tests used:
# GST-14-3-3η [1] = molecular target: T1, GST-14-3-3η (UniProt Q04917); assay: pull-down; purified GST fusion proteins incubated with cell extracts from different breast cancer cell lines for 45 min at 4°C; western blot; only the target purified
# T1 sequence: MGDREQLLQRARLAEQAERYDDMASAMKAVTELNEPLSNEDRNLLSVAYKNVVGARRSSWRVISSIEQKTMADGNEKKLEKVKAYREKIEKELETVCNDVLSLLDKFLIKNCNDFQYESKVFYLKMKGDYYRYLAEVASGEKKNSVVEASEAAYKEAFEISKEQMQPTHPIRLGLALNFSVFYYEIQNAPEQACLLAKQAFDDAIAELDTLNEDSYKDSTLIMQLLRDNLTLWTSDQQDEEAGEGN
# GST-14-3-3η [2] = molecular target: T1, GST-14-3-3η; assay: pull-down; purified GST fusion proteins incubated with lysates of TNFα-treated MCF10A cells for 45 min at 4°C; precipitates washed and analysed by western blot; only the target purified
binding (GST-14-3-3η [1]),binding (GST-14-3-3η [2]),Substance
no binding,no binding,p50 NF-κB (from UniProt P19838 1-433)
no binding,no binding,p65-NF-κB (from UniProt Q04206 1-551)
